Reference: the supplement of paper PMC10849652
The list shows a part of the results.

By UniProt entry, the sequences of proteins in these tests, tags left out. Where a name states a change or a piece, a line headed by the entry shows the natural chain unless it says otherwise.
UniProt Q6P4A7: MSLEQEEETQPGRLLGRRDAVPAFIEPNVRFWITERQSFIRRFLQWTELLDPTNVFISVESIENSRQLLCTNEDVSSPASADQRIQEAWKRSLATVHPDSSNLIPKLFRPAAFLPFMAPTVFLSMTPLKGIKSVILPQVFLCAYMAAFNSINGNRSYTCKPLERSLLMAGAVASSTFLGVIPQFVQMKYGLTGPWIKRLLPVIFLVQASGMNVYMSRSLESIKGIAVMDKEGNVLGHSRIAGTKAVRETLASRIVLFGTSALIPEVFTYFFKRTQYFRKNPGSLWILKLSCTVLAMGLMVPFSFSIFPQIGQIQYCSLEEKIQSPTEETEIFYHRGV
UniProt Q13435: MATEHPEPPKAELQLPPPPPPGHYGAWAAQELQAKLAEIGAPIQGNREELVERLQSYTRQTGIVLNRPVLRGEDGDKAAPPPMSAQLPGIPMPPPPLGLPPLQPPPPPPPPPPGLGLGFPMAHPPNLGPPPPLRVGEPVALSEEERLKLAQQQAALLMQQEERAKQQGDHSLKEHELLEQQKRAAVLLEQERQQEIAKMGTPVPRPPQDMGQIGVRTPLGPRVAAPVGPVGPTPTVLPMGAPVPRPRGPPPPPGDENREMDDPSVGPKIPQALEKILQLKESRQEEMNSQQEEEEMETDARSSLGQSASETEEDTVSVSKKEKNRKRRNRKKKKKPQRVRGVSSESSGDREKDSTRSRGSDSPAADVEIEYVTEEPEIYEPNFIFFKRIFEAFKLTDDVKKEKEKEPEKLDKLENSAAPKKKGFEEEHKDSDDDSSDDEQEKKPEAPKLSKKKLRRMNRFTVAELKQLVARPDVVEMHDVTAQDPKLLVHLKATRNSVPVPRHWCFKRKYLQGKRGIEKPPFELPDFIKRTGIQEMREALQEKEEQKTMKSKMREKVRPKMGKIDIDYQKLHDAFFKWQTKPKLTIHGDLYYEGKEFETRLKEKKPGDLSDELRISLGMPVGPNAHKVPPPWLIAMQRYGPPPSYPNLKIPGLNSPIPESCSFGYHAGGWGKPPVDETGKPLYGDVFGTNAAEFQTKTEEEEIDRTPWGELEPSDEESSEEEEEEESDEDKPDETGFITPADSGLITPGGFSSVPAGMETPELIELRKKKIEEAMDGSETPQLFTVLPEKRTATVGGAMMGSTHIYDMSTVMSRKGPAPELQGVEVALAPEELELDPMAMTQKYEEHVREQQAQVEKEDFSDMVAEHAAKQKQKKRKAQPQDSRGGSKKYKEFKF
UniProt P50454: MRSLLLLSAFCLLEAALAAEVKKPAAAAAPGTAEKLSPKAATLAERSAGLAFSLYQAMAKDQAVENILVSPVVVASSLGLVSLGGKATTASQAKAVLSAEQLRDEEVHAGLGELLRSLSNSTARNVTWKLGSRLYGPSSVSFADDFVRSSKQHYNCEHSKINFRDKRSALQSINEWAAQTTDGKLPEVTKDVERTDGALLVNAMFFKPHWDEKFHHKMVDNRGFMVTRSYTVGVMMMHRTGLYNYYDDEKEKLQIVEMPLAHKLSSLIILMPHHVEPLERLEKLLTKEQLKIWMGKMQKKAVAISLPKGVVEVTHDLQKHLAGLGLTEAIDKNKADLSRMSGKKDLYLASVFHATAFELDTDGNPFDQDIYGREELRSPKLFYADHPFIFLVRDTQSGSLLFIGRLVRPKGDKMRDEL
UniProt Q86VZ5: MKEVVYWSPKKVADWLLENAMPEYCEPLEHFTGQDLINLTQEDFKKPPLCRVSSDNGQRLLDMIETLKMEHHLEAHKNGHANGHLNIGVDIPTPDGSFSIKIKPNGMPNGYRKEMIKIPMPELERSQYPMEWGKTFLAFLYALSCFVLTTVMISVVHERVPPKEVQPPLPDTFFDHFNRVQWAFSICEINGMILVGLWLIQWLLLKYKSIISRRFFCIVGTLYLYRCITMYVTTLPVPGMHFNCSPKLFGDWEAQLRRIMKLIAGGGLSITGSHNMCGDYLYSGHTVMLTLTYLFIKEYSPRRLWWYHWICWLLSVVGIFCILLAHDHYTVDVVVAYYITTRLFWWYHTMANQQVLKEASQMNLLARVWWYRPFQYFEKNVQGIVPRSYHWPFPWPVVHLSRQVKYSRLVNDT
UniProt O43765: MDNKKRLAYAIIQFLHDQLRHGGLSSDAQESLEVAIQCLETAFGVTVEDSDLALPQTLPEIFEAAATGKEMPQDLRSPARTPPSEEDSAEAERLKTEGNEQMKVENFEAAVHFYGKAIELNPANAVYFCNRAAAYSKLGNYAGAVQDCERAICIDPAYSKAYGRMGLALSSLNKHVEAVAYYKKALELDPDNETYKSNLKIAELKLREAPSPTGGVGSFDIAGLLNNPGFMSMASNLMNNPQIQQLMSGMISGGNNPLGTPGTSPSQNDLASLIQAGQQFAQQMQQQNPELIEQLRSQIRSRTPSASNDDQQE
UniProt Q12872: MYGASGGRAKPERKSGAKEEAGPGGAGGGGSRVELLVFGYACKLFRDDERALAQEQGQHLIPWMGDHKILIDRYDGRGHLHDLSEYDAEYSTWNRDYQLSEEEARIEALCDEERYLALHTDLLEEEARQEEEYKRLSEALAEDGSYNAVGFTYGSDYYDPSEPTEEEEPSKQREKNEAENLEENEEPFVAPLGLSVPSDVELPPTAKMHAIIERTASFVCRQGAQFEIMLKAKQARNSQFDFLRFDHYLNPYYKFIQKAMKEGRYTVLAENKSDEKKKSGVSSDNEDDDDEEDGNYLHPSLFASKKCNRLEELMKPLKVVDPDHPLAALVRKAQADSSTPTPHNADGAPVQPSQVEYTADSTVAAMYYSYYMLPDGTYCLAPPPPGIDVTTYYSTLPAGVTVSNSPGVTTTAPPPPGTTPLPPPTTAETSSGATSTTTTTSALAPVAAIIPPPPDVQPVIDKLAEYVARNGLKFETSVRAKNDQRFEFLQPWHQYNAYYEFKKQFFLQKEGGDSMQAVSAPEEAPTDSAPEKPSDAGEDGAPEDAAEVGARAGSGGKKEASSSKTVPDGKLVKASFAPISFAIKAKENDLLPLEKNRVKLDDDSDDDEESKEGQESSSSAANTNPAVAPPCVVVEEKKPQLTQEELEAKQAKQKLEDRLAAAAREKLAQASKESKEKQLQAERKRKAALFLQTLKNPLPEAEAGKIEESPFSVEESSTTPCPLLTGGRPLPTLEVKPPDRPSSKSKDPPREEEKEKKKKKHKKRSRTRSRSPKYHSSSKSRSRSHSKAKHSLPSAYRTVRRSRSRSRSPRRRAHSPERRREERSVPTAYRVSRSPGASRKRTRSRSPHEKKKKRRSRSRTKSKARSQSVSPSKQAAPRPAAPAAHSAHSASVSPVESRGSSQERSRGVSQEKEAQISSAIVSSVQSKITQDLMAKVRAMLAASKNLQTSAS
UniProt Q96NB2: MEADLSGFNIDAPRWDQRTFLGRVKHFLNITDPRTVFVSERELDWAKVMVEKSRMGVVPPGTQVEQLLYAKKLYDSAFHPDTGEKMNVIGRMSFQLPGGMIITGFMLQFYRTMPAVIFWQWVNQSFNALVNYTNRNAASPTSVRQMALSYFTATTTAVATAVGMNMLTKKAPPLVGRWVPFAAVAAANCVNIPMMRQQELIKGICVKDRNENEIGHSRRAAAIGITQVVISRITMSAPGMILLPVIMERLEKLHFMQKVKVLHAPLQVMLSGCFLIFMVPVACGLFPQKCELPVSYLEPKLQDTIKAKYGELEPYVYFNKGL
UniProt P34896: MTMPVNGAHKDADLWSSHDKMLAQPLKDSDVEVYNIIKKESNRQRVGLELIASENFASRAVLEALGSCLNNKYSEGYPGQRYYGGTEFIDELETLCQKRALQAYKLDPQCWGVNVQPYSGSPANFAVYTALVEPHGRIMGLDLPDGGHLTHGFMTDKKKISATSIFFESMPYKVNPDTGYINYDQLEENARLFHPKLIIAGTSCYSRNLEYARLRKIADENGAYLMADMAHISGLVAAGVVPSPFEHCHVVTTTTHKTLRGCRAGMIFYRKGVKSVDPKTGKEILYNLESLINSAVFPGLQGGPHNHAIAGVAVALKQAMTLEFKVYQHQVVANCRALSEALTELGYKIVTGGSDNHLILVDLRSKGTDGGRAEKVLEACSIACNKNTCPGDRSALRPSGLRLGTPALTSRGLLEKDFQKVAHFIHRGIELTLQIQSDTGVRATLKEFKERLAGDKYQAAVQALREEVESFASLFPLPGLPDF
UniProt Q9NXA8: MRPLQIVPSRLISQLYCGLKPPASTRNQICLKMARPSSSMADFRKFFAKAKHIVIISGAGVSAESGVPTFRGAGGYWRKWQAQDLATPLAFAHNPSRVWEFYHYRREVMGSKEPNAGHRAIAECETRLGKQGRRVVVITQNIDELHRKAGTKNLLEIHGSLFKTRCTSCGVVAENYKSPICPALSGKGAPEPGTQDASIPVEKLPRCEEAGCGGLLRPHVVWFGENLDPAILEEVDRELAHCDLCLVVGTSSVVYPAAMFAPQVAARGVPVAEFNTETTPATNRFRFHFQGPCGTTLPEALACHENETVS
UniProt O75368: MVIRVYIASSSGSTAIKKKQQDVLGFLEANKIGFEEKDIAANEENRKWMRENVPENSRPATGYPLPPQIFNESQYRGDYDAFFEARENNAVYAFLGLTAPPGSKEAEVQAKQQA
UniProt Q9UBV2: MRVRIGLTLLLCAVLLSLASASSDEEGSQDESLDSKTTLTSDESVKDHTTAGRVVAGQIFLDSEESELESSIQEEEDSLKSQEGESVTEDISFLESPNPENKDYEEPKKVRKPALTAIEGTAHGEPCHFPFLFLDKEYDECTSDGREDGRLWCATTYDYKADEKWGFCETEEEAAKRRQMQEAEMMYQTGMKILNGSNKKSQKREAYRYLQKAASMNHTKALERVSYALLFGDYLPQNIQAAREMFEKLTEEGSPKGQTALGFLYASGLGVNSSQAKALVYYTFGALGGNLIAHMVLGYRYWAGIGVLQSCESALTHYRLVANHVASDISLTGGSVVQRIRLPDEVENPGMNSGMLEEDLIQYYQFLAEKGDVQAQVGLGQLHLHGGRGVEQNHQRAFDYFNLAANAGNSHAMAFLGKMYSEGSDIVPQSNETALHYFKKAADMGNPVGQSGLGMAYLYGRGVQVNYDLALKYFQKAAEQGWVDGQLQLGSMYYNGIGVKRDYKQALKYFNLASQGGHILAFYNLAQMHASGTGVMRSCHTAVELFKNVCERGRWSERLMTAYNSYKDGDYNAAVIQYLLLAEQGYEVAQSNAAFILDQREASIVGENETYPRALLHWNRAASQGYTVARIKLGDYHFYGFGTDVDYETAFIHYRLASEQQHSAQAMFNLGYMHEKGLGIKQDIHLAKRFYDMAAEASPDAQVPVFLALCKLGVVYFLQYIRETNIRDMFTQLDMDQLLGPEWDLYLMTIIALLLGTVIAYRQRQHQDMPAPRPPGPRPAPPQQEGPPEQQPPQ
UniProt O43236: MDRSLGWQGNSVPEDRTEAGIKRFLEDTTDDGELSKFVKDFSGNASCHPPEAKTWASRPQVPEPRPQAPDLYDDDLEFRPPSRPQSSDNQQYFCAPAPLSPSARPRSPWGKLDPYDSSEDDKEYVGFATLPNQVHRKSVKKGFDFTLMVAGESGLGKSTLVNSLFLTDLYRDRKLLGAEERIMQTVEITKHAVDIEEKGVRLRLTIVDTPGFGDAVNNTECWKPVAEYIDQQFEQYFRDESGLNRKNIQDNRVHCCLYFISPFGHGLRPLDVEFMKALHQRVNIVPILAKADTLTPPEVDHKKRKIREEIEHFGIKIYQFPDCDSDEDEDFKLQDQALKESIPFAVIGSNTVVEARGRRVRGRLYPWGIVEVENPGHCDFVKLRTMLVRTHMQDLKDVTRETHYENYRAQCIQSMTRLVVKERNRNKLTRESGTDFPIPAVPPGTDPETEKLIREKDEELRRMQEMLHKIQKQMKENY
UniProt Q8TBC3: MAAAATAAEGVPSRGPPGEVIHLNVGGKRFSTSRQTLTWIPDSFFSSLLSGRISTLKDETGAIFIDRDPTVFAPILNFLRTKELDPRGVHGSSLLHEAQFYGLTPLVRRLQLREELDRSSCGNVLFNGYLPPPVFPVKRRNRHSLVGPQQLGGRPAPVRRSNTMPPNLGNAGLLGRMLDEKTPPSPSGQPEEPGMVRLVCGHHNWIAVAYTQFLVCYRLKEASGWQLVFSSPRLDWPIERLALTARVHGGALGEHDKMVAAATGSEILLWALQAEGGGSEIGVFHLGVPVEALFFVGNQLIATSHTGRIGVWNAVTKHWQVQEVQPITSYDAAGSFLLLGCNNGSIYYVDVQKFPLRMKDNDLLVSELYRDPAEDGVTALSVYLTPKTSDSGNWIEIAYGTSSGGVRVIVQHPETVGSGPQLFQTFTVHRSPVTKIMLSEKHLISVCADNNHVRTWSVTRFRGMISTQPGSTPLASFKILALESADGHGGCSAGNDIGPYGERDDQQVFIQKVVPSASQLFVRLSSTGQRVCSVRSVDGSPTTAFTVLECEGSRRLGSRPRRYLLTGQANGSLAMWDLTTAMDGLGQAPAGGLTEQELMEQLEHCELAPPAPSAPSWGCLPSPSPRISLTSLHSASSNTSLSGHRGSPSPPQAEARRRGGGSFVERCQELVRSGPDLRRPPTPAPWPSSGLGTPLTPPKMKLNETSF

Columns and labels:
Assay in all cases: log2 fold change, soluble protein after heating vs DMSO (PISA); higher = thermal stabilisation; K562 cells, 10 uM, 30 min; active = over 0.2 and 3.5 SD of the protein, either way, in both replicates (recomputed)
[1] = compound: COC1=CC=C(C=C1)CN2C=CC3=C2C=C(C=C3)C(=O)NO
In short: (§1)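 Values are thermal stability changes relative to control samples and are taken from duplicates. They are stated as log2 fold changes. Before quantification by TMTpro 16plex LC-MS/MS with equalised channel sums, K562 cells at 2×10^6 cells/mL were treated with 10 μM compound for 30 min, heated in aliquots for 3 min across 48°C-58°C, pooled, extracted in PBS with 0.5% NP-40 at 4°C, and centrifuged at 21,000xg for 90 min to give the soluble supernatant.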

[2] = compound: CON(C)C(=O)N1N=C(c2cc(F)ccc2F)S[C@@]1(CCCN)c1ccccc1 [filanesib]
In short: as §1

[3] = compound: CO[C@H]1C[C@@H]2CC[C@@H](C)[C@@](O)(O2)C(=O)C(=O)N2CCCC[C@H]2C(=O)O[C@H]([C@H](C)C[C@@H]2CC[C@H](n3cnnn3)[C@H](OC)C2)CC(=O)[C@H](C)/C=C(\C)[C@@H](O)[C@@H](OC)C(=O)[C@H](C)C[C@H](C)/C=C/C=C/C=C/1C [zotarolimus]
In short: as §1

[4] = compound: COc1cc(C(=O)O)ccc1NC(=O)[C@@H]1N[C@@H](CC(C)(C)C)[C@](C#N)(c2ccc(Cl)cc2F)[C@H]1c1cccc(Cl)c1F [idasanutlin]
In short: as §1

[5] = compound: COc1cc(Nc2ncc3c(n2)-c2ccc(Cl)cc2C(c2c(F)cccc2OC)=NC3)ccc1C(=O)O [alisertib]
In short: as §1

[6] = compound: COc1cc2nc(-c3cc(F)ccc3O)nc(N[C@@H]3CNC[C@H]3C(C)(C)O)c2cc1OC
In short: as §1

[7] = compound: COc1cc2ncnc(Nc3ccc(F)c(Cl)c3)c2cc1OCCCN1CCOCC1 [gefitinib]
In short: as §1

[8] = compound: COc1cccc2cc(-c3nc([C@H]4CC[C@H](C(=O)O)CC4)n4ncnc(N)c34)[nH]c12
In short: as §1

[9] = compound: CS(=O)(=O)CCNCc1ccc(-c2ccc3ncnc(Nc4ccc(OCc5cccc(F)c5)c(Cl)c4)c3c2)o1 [lapatinib]
In short: as §1

[10] = compound: CS(=O)(=O)N1CCN(Cc2cc3nc(-c4cccc5[nH]ncc45)nc(N4CCOCC4)c3s2)CC1 [pictilisib]
In short: as §1

[11] = compound: CS(=O)(=O)c1ccc(-c2cnc(N)c(C(=O)Nc3ccccc3)n2)cc1
In short: as §1

[12] = compound: C[C@@H](Oc1cc(-c2cnn(C3CCNCC3)c2)cnc1N)c1c(Cl)ccc(F)c1Cl [crizotinib]
In short: as §1

[13] = compound: C[C@@H]1COCCN1C2=NC(=NC(=C2)C3(CC3)S(=O)(=O)C)C4=C5C=CNC5=CC=C4
In short: as §1

[14] = compound: C[C@H](C1=CC=C(C=C1)C(=O)NC2=C3C=CNC3=NC=C2)N
In short: as §1

[15] = compound: C[C@H](Nc1ncnc2nc[nH]c12)c1cc2cccc(Cl)c2c(=O)n1-c1ccccc1 [duvelisib]
In short: as §1

[16] = compound: Cc1cc(Nc2cc(CN3CCOCC3)c3nc(C)c(Cc4ccc(Cl)cc4F)n3n2)n[nH]1 [gandotinib]
In short: as §1

[17] = compound: Cc1cc(Nc2cc(N3CCN(C)CC3)nc(Sc3ccc(NC(=O)C4CC4)cc3)n2)n[nH]1 [tozasertib]
In short: as §1

[18] = compound: Cc1cc(SCc2sc(-c3ccc(C(F)(F)F)cc3)nc2C)ccc1OCC(=O)O
In short: as §1

[19] = compound: Cc1ccc(-n2nc(C(C)(C)C)cc2NC(=O)Nc2ccc(OCCN3CCOCC3)c3ccccc23)cc1 [doramapimod]
In short: as §1

[20] = compound: Cc1ccc(C(=O)N(CCCN)[C@@H](c2nc3cc(Cl)ccc3c(=O)n2Cc2ccccc2)C(C)C)cc1 [ispinesib]
In short: as §1

Measured: log2 fold change

SELENOF (UniProt O60613)
inactive: [1] 0.015 | [2] 0.025 | [3] 0.022 | [4] 0 | [5] -0.054 | [6] 0.013 | [7] 0.006 | [8] -0.007 | [9] -0.03 | [10] 0.014 | [11] 0.054 | [12] 0.062 | [13] 0.023 | [14] 0.043 | [15] 0.027 | [16] 0.024 | [17] -0.005 | [18] -0.018 | [19] 0.001 | [20] 0.01

SFXN4 (UniProt Q6P4A7)
inactive: [1] 0.045 | [2] -0.035 | [3] -0.031 | [4] 0.006 | [5] -0.062 | [6] 0 | [7] 0.022 | [8] 0.075 | [9] 0.008 | [10] -0.035 | [11] 0.034 | [12] 0.021 | [13] 0.055 | [14] -0.017 | [15] 0.018 | [16] -0.049 | [17] -0.032 | [18] -0.002 | [19] -0.02 | [20] 0.032

SF3B2 (UniProt Q13435)
inactive: [1] -0.042 | [2] 0.166 | [3] 0.012 | [4] 0.048 | [5] -0.03 | [6] -0.033 | [7] 0.008 | [8] -0.06 | [9] 0.049 | [10] -0.02 | [11] -0.056 | [12] 0.032 | [13] -0.12 | [14] 0.141 | [15] -0.039 | [16] 0.04 | [17] 0.063 | [18] 0.029 | [19] 0.033 | [20] -0.018

SERPINH1 (UniProt P50454)
inactive: [1] -0.025 | [2] -0.006 | [3] 0.023 | [4] -0.004 | [5] -0.065 | [6] -0.003 | [7] 0.008 | [8] -0.009 | [9] 0.03 | [10] 0.028 | [11] 0.033 | [12] 0.082 | [13] -0.019 | [14] 0.015 | [15] -0.003 | [16] 0.031 | [17] 0.004 | [18] -0.009 | [19] -0.007 | [20] 0.061

SGMS1 (UniProt Q86VZ5)
inactive: [1] -0.029 | [2] -0.016 | [3] -0.003 | [4] -0.101 | [5] 0.004 | [6] 0.051 | [7] 0.021 | [8] 0.038 | [9] 0 | [10] 0.038 | [11] 0.074 | [12] -0.057 | [13] 0.047 | [14] -0.049 | [15] 0.036 | [16] -0.029 | [17] 0.027 | [18] -0.031 | [19] -0.007 | [20] 0.029

SGTA (UniProt O43765)
inactive: [1] 0.051 | [2] -0.061 | [3] 0.025 | [4] -0.002 | [5] -0.128 | [6] 0 | [7] -0.008 | [8] 0.006 | [9] -0.014 | [10] 0.045 | [11] 0.012 | [12] 0.031 | [13] 0.041 | [14] -0.056 | [15] 0.01 | [16] -0.018 | [17] 0.037 | [18] -0.003 | [19] -0.034 | [20] 0.029

SFSWAP isoform 2 (UniProt Q12872)
inactive: [1] -0.004 | [2] 0.139 | [3] 0.158 | [4] 0.106 | [5] -0.139 | [6] -0.099 | [7] 0.057 | [8] -0.121 | [9] 0.134 | [10] 0.009 | [11] -0.114 | [12] 0.006 | [13] 0.019 | [14] -0.172 | [15] 0.078 | [16] -0.032 | [17] 0.095 | [18] 0.035 | [19] -0.036 | [20] 0.019

SFXN2 (UniProt Q96NB2)
inactive: [1] -0.024 | [2] -0.101 | [3] -0.015 | [4] -0.005 | [5] 0.063 | [6] -0.049 | [7] 0.036 | [8] 0.08 | [9] 0.037 | [10] 0.052 | [11] 0.049 | [12] 0.003 | [13] 0.243 | [14] -0.042 | [15] 0.057 | [16] 0.006 | [17] -0.047 | [18] -0.068 | [19] -0.028 | [20] -0.039

SHMT1 (UniProt P34896)
inactive: [1] 0.048 | [2] -0.088 | [3] 0.006 | [4] -0.031 | [5] -0.105 | [6] 0.038 | [7] 0 | [8] 0.041 | [9] 0.014 | [10] 0.069 | [11] -0.01 | [12] 0.05 | [13] 0.101 | [14] -0.036 | [15] 0.048 | [16] 0.035 | [17] -0.004 | [18] -0.021 | [19] 0.002 | [20] 0.045

SIRT5 (UniProt Q9NXA8)
inactive: [1] 0.225 | [2] -0.049 | [3] 0.072 | [4] -0.063 | [5] -0.02 | [6] 0.053 | [7] 0.06 | [8] -0.05 | [9] -0.02 | [10] 0.063 | [11] 0.025 | [12] 0.193 | [13] 0.273 | [14] -0.059 | [15] 0.054 | [16] 0.024 | [17] 0.032 | [18] 0.062 | [19] -0.089 | [20] -0.04

SERPINB6, A0A087X1N8
inactive: [1] 0.099 | [2] -0.051 | [3] -0.006 | [4] -0.032 | [5] -0.078 | [6] -0.047 | [7] -0.002 | [8] 0.062 | [9] -0.006 | [10] -0.037 | [11] 0.014 | [12] 0.029 | [13] -0.018 | [14] -0.103 | [15] -0.004 | [16] 0.046 | [17] -0.016 | [18] -0.009 | [19] -0.033 | [20] 0.09

SH3BGRL (UniProt O75368)
inactive: [1] 0.018 | [2] -0.101 | [3] -0.005 | [4] -0.052 | [5] -0.028 | [6] -0.047 | [7] -0.009 | [8] 0 | [9] -0.012 | [10] 0.157 | [11] -0.086 | [12] 0.068 | [13] 0.088 | [14] -0.123 | [15] 0.055 | [16] 0.115 | [17] 0.019 | [18] -0.015 | [19] 0 | [20] 0.113

SEL1L (UniProt Q9UBV2)
inactive: [1] -0.022 | [2] -0.05 | [3] 0.014 | [4] 0 | [5] -0.019 | [6] 0.008 | [7] -0.008 | [8] -0.016 | [9] 0.025 | [10] 0.027 | [11] -0.03 | [12] 0.016 | [13] 0.043 | [14] 0.031 | [15] -0.006 | [16] 0.068 | [17] -0.01 | [18] -0.002 | [19] 0.031 | [20] 0.022

SH3BP5 (UniProt O60239)
inactive: [1] -0.022 | [2] -0.104 | [3] -0.041 | [4] 0.053 | [5] -0.037 | [6] -0.021 | [7] -0.02 | [8] -0.03 | [9] 0.056 | [10] 0.145 | [11] 0.08 | [12] 0.082 | [13] -0.019 | [14] 0.065 | [15] 0.053 | [16] 0.111 | [17] -0.042 | [18] -0.045 | [19] -0.038 | [20] -0.034

Fetched one by one from above, 2 records:
SH3BGRL (UniProt O75368)
inactive: [1] 0.018 | [2] -0.101 | [3] -0.005 | [4] -0.052 | [5] -0.028 | [6] -0.047 | [7] -0.009 | [8] 0 | [9] -0.012 | [10] 0.157 | [11] -0.086 | [12] 0.068 | [13] 0.088 | [14] -0.123 | [15] 0.055 | [16] 0.115 | [17] 0.019 | [18] -0.015 | [19] 0 | [20] 0.113

SEL1L (UniProt Q9UBV2)
inactive: [1] -0.022 | [2] -0.05 | [3] 0.014 | [4] 0 | [5] -0.019 | [6] 0.008 | [7] -0.008 | [8] -0.016 | [9] 0.025 | [10] 0.027 | [11] -0.03 | [12] 0.016 | [13] 0.043 | [14] 0.031 | [15] -0.006 | [16] 0.068 | [17] -0.01 | [18] -0.002 | [19] 0.031 | [20] 0.022

(continued)

SEPTIN4 isoform 4 (UniProt O43236)
inactive: [1] 0.764 | [2] -0.058 | [3] 0.116 | [4] -0.279 | [5] 0.181 | [6] -0.015 | [7] 0.055 | [8] 0.008 | [9] 0.03 | [10] 0.015 | [11] -0.074 | [12] -0.051 | [13] 0.129 | [14] -0.243 | [15] 0.019 | [16] 0.014 | [17] -0.035 | [18] 0.021 | [19] 0.282 | [20] 0.256

SHKBP1 (UniProt Q8TBC3)
inactive: [1] -0.02 | [2] 0.05 | [3] 0.018 | [4] 0.013 | [5] -0.005 | [6] 0.056 | [7] -0.026 | [8] 0.043 | [9] -0.036 | [10] -0.022 | [11] 0.014 | [12] -0.019 | [13] -0.024 | [14] -0.019 | [15] 0.051 | [16] -0.059 | [17] 0.005 | [18] -0.133 | [19] 0.019 | [20] -0.055
